# Reference: PubChem BioAssay AID624246 (National Center for Advancing Translational Sciences (NCATS), 2012)
# Chains of the proteins cited; added tags and fusions are not shown. Lines headed by an entry give the natural chain unless they say otherwise; changes in a name come on top.
# UniProt P11308: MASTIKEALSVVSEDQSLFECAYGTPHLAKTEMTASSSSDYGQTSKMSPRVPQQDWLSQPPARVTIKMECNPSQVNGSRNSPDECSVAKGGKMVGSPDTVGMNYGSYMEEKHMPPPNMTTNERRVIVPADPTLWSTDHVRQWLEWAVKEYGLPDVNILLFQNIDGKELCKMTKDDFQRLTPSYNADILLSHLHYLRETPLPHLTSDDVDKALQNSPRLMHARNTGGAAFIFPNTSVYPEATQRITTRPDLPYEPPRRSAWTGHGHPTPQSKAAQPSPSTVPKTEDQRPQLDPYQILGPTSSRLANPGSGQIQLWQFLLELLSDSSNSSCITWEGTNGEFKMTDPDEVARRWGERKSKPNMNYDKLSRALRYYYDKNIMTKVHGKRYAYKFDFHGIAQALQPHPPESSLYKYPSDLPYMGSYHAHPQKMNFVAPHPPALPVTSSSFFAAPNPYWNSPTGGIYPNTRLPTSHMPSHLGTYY
# In all, about 370,000 compounds went through this assay and about 100 (0.027%) were called active. Inconclusive results, whose numbers are uncertain, are shown with a selection of clear calls. Calls follow the shape of the dose curve; as a rule, active = well fitted inhibition curve with a large enough effect in the polarisation, with a control signal flat; inconclusive = small, poorly fitted or top-dose-only effect, or effect the other way, or a change in a side signal; inactive = no such curve, though single readings can be large or run the other way; the % refers to the polarisation. Where the call is inconclusive, the potency comes from a doubtful curve fit. “Side channel” marks fits to a control or component signal instead of the main read-out. Square brackets hold non-standard residues; d marks the D form. Peptide text beside a SMILES is read from it. pGlu = O=C1CC[CH](C(=O)O)N1
# Biological target: Transcriptional regulator ERG (Homo sapiens) (UniProt P11308)
# Test: qHTS for Small Molecule Inhibitors of the ERG Ets/DNA interaction; as to FP activity, negative = inhibition: % of control where 0% means no effect
# Details: fluorescence polarization, His-ERG Ets domain / labelled DNA; FP activity, negative = inhibition: at 76.9 µM (top of the series)
# In short: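 His-tagged ERG Ets domain (1 uM in the protein solution; 300mM KCl, 50mM Tris-HCl, 1mM EDTA, 1mM DTT, pH 7.5) received compound, then a probe mix of 5 nM fluorescein-DNA and 100nM Texas-615-DNA. Fluorescence polarization was read for both dyes.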
# Potency is read from the fitted curve at half-maximal effect.
Structure (SMILES),Potency,"FP activity, negative = inhibition"
COC(=O)c1ccc(COc2ccccc2[N+](=O)[O-])o1,"inconclusive: 6.31 µM [inhibitor, single point]",
C/C(=C1/SC(=S)N(CCC(=O)O)C1=O)c1ccc(O)cc1,"inconclusive: 6.31 µM [fluorescent, side channel, partial curve]",
COc1ccc(-c2coc3c(CN4CCOCC4)c(O)ccc3c2=O)cc1,"inconclusive: 50.1 µM [inhibitor, single point]",
Cc1nc(SCC(=O)Nc2ccc(N3CCOCC3)cc2)nc(C)c1C,,inactive: -7.33%
Cc1ccc(C(=O)N2CCN(C(=O)c3ccccc3)C2c2ccc(N(C)C)cc2)cc1 (centres undefined),"inconclusive: 1 µM [quencher, side channel, full curve, poor fit]",
Cc1ccc(Cl)cc1N1CCN(S(=O)(=O)c2c(C)noc2C)CC1,,inactive: -10.5%
CCN(CC)CCCNc1nc2cc(OC)c(OC)cc2c2nc(-c3cccnc3)nn12,"inconclusive: 22.4 µM [quencher, side channel, partial curve, poor fit]",
CC(C)N1C(=O)S/C(=C\c2ccc(-c3ccc(Cl)c(C(=O)O)c3)o2)C1=O,"inconclusive: 7.08 µM [inhibitor, full curve, poor fit]",
O=C(O)c1ccc(N2CCCCCC2)c(N2C(=O)c3ccccc3C2=O)c1,"inconclusive: 11.2 µM [fluorescent, side channel, single point]",
CCOC(=O)n1c(=O)n(C)c2ccc(Cl)cc21,,inactive: 7.25%
CC(C)COC(=O)/C(C#N)=C/c1c[nH]c2ccccc12,"inconclusive: 6.31 µM [inhibitor, partial curve, poor fit]",
CC(C)C(=O)NC(=S)Nc1ccccn1,,inactive: -1.27%
CCOC(=O)c1ccc(COC(=O)CNC(=O)CNC(=O)Cc2ccccc2)cc1,,inactive: -3.82%
COc1ccc(-c2nc3ccccc3o2)cc1NC(=O)C(C)Oc1ccc(Cl)cc1Cl (centres undefined),,inactive: 4.17%
O=S(=O)(NC1CCCCC1)c1ccc(Br)s1,"inconclusive: 50.1 µM [inhibitor, partial curve, poor fit]",
O=C(NCC1CCCO1)C1CC(=O)N(c2ccc(Cl)cc2)C1 (centres undefined),"inconclusive: 11.2 µM [inhibitor, partial curve, poor fit]",
O=C(/C=C/c1ccc([N+](=O)[O-])cc1)NCCc1ccc(F)cc1,,inactive: -4.17%
C=CCOc1ccc(C2OC34CCCCC3C(C#N)(C#N)C2(C#N)C(=N)O4)cc1 (centres undefined),"inconclusive: 50.1 µM [fluorescent, side channel, partial curve, poor fit]",
N#C/C(=C(/O)c1ccccc1F)c1nc2cc(C(F)(F)F)ccc2s1,"inconclusive: 0.794 µM [inhibitor, full curve, poor fit]",
CN(C(=O)c1ccc2c(c1)N(Cc1cccc(Cl)c1)C(=O)c1ccccc1S2=O)C1CCCCC1 (centres undefined),,inactive: -4.59%
Nc1cccc2nc3ccccc3cc12,"inconclusive: 3.55 µM [inhibitor, full curve, poor fit]",
c1coc(CNc2nc3ccccc3s2)c1,"inconclusive: 50.1 µM [inhibitor, single point]",

Structure (SMILES),Potency,"FP activity, negative = inhibition"
COc1ccc(/C=C/c2c([N+](=O)[O-])c(=O)n(C)c(=O)n2C)c(OC)c1,,inactive: -0.852%
CCCn1cc(CN2CCCC(C(=O)c3ccc4c(c3)OCO4)C2)c(C)n1 (centres undefined),,inactive: -4.68%
CCC(C)NCCCOc1ccc(C)cc1OC (centres undefined),"inconclusive: 2 µM [inhibitor, partial curve, poor fit]",
C/C(=N\OC(=O)NC(C)C)c1sc(-c2ccccc2)nc1C,,inactive: 8.57%
COc1cc([N+](=O)[O-])cc2sc(NC(=O)c3c(F)cccc3F)nc12,"inconclusive: 50.1 µM [inhibitor, single point]",
N#C/C(=C\c1ccc(N2CCCCC2)o1)C(=O)Nc1cccc(Br)c1,"inconclusive: 10 µM [fluorescent, side channel, partial curve, poor fit]",
CCc1ccc(S(=O)(=O)Nc2cccc(-c3ccc(OC)nn3)c2)s1,,inactive: 0.554%
Cc1ccc(NC(=O)NCC2CCN(Cc3cccc(Cl)c3)CC2)cc1Cl,inactive,
Cc1nn(C2CCS(=O)(=O)C2)c(Cl)c1/C=C/C(=O)OCC(=O)c1c[nH]c2ccccc12 (centres undefined),"inconclusive: 0.891 µM [inhibitor, full curve, poor fit]",
Nc1ccccc1-n1cccc1,"inconclusive: 7.08 µM [inhibitor, single point]",
Cc1ccc(N(Cc2cc(=O)[nH]c3ccccc23)C(=O)CCl)c(C)c1,"inconclusive: 17.8 µM [inhibitor, partial curve]",
Nn1cnnc1N/N=C/c1cccc(Cl)c1Cl,"inconclusive: 31.6 µM [inhibitor, single point]",
CC(C)CC(NC(=O)C1CCC(=O)N1)C(=O)NC(CC(C)C)C(=O)N1CCCC1C(N)=O (centres undefined) ([pGlu]LLP-NH2; configuration not given here),"inconclusive: 3.16 µM [inhibitor, partial curve, poor fit]",
Cc1nn(-c2ccc(C(=O)O)cc2)c(N)c1-c1ccccc1,,inactive: 9.7%
COCCNC(=O)CCCn1c(=O)c2ccccc2n(CC(=O)NCCC2=CCCCC2)c1=O,"inconclusive: 28.2 µM [quencher, side channel, partial curve, poor fit]",
Cc1sc2nc(CSC(C)C(=O)Nc3ccc(C(N)=O)cc3)[nH]c(=O)c2c1C (centres undefined),"inconclusive: 11.2 µM [inhibitor, single point]",
COc1ccccc1-n1nc(-c2ccccc2)c2cnc3c(F)cc(F)cc3c21,"inconclusive: 11.2 µM [quencher, side channel, single point]",
COc1cccc2c1C(=O)c1c(O)c3c(c(O)c1C2=O)C[C@@](O)(C(=O)CO)C[C@@H]3O[C@H]1C[C@H](N)[C@H](O)[C@H](C)O1,"inconclusive: 1.26 µM [inhibitor, partial curve, poor fit]",
CCOc1ccc2nc(SCC(=O)c3ccc(C)s3)sc2c1,"inconclusive: 50.1 µM [inhibitor, single point]",
CC1CCN(C(=O)CSc2c3c(nc4ccc(Cl)cc24)CCCC3)CC1,"inconclusive: 50.1 µM [quencher, side channel, single point]",
CC(C(=O)Nc1ccc(Cl)cc1)c1ncc(C(F)(F)F)cc1Cl (centres undefined),"inconclusive: 50.1 µM [fluorescent, side channel, partial curve, poor fit]",
Cc1ncc([N+](=O)[O-])n1CC(=O)N/N=C/c1ccc(F)cc1,"inconclusive: 44.7 µM [inhibitor, partial curve, poor fit]",

# Gathered by group: the compounds so far with a CF3 group.
Structure (SMILES),Potency,"FP activity, negative = inhibition"
N#C/C(=C(/O)c1ccccc1F)c1nc2cc(C(F)(F)F)ccc2s1,"inconclusive: 0.794 µM [inhibitor, full curve, poor fit]",
CC(C(=O)Nc1ccc(Cl)cc1)c1ncc(C(F)(F)F)cc1Cl (centres undefined),"inconclusive: 50.1 µM [fluorescent, side channel, partial curve, poor fit]",

# Following part

Structure (SMILES),Potency,"FP activity, negative = inhibition"
CCOc1ccc2nc(NC(=O)Cc3cccs3)sc2c1,"inconclusive: 39.8 µM [quencher, side channel, single point]",
Cc1ccc(Cl)cc1-n1c(CCC(=O)O)ccc1-c1cccs1,,inactive: 5.7%
COc1cc(OC)cc(C(=O)NCC(=O)OCc2csc(-c3ccccc3)n2)c1,"inconclusive: 56.2 µM [inhibitor, single point]",
COc1ccc([C@@H](NC(=O)OC(C)(C)C)C(=O)OC(C)(C)C)cc1,"inconclusive: 0.794 µM [inhibitor, full curve, poor fit]",
CC(C)C(=O)NC(=S)Nc1ccc(S(=O)(=O)Nc2ccccc2)cc1,"inconclusive: 5.01 µM [inhibitor, partial curve, poor fit]",
Clc1cccc(CON/C=N/c2ncnc3sccc23)c1,,inactive: 0.3%
O=[N+]([O-])c1cc(S(=O)(=O)Nc2ccccc2)ccc1N1CCN(c2ccccc2)CC1,,inactive: -0.809%
CC(=O)Nc1ccc(S(=O)(=O)N2CCN(C(C)CCc3ccccc3)CC2)cc1 (centres undefined),,inactive: 6.24%
O=C(O)c1cc(O)c2c(c1)[C@H]([C@H]1c3cc(C(=O)O)cc(O)c3C(=O)c3c(O[C@@H]4O[C@H](CO)[C@@H](O)[C@H](O)[C@H]4O)cccc31)c1cccc(OC3O[C@H](CO)[C@@H](O)[C@H](O)[C@H]3O)c1C2=O (some centres undefined),"inconclusive: 39.8 µM [inhibitor, single point]",
Cc1cccc(Cn2c(=O)n3nc(-c4ccccc4)nc3c3ccccc32)c1,,inactive: -0.993%
CN(C)c1ccc(C2CC(c3cccc(NS(C)(=O)=O)c3)=NN2C(=O)c2ccccc2)cc1 (centres undefined),,inactive: 1.41%
CC[C@]12c3[nH]c4ccc(OC)cc4c3CCN1C(=O)C(CC(=O)NC/C=C(\C)CCC=C(C)C)C[C@@H]2C(=O)N1CCN(C(=O)C2CC2)CC1 (some centres undefined),,inactive: 13.4%
CN(C(=O)CSc1nnc(NC(=O)Nc2ccccc2)s1)c1ccccc1,"inconclusive: 100 µM [inhibitor, single point]",
COC(=O)c1ccccc1NS(=O)(=O)c1ccc2c(c1)CCCN2C(C)=O,"inconclusive: 31.6 µM [inhibitor, partial curve, poor fit]",
CCc1cccc(C)c1NS(=O)(=O)Cc1ccccc1,"inconclusive: 3.98 µM [inhibitor, partial curve, poor fit]",
Cc1cccc(N2CCN(C(=O)C3CCN(c4ncnc5c4nc4n5CCCCC4)CC3)CC2)c1C,"inconclusive: 39.8 µM [fluorescent, side channel, single point]",
Cc1ccc(NC(=O)c2ccc3snnc3c2)cc1,,inactive: -2.02%
COc1ccc2[nH]c(C)c(CCNC(=S)Nc3ccccc3OC)c2c1,,inactive: 0.425%
Cc1cc(NC(=O)CN(c2cccc(C)c2C)S(=O)(=O)c2ccccc2)ccc1Br,,inconclusive: 3.56% [phenotype inactive]
CSc1ccc(S(=O)(=O)N2CCC(C(=O)NCc3ccncc3)CC2)cc1,"inconclusive: 11.2 µM [inhibitor, single point]",
